PubChem BioAssay AID662 (National Center for Advancing Translational Sciences (NCATS), 2007)
Values joined by “and” are separate entries in the source; they are usually repeats but may differ in a detail not shown here. Equal entries are not always repeated. Some of the results follow. These are further read-outs of the screen, such as a control signal, another cell line or another target. No call is given for them. The list favours compounds with an active or inconclusive main result. The note in brackets gives the kind of curve behind each potency; many fits are weak.

Assay: Cell signaling CRE-BLA (Fsk stim)
Details: CHO CRE-bla reporter (cAMP response element driving beta-lactamase), forskolin EC10, beta-lactamase ratio; measured here: 460 nm blue channel
Summary of the method: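 CRE-bla CHO reporter cells treated with compound titration plus EC10 NKH 477 (water-soluble forskolin), incubated 3 h at 37 °C; CCF4 loading 2 h at room temperature, 460/530 nm emission ratio read, AC50 values derived for positive or negative modulators.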

| Compound | AC50 |
| --- | --- |
| O=C(Nc1nc(-c2ccncc2)cs1)C1COc2ccccc2O1 (stereo not drawn) | 10 µM [rising, partial curve] |
| COc1cc2ccccc2cc1C(=O)Nc1ccc(N2CCN(C)CC2)cc1 | 10 µM [rising, single point] |
| COc1ncc2nc(-c3cccs3)c(=O)n(C)c2n1 | 3.16 µM [rising, full curve] |
| Cc1onc(-c2c(Cl)cccc2Cl)c1C(=O)N1CCc2ccccc21 | 15.8 µM [falling, single point] |
| O=C(CN1C(=O)C2C3C=CC(C3)C2C1=O)N1CC(=O)N(CCc2ccccc2)C(=O)C1 (stereo not drawn) | 2.51 µM [falling, single point] |
| Cn1c(=O)c2c(nc(N3CCc4ccccc4C3)n2Cc2ccccc2F)n(C)c1=O | 3.98 µM [rising, partial curve] |
| CC(C)c1ccc(NC(=O)CSc2nnc(-c3ccccn3)n2C)cc1 | 0.0631 µM [rising, single point] |
| CC1(C)CC(CCNC(=O)c2ccc(-n3cnnn3)cc2)CC(C)(C)N1 | 1.58 µM [falling, full curve, poor fit] |
| CCn1nc(C(=O)Nc2ccc(S(=O)(=O)Nc3nccs3)cc2)c2ccccc2c1=O | 3.16 µM [rising, single point] |
| O=C(c1ccc2c(c1)OCO2)n1nnc2ccccc21 | 10 µM [falling, partial curve] |
| COc1ccccc1-c1cc(NCc2cccc(C)c2)ncn1 | 6.31 µM [rising, partial curve, poor fit] |
| Cc1cc2ccccc2n1CCNC(=O)c1cccs1 | 15.8 µM [falling, partial curve] |
| CN1CCc2c(sc3nc(SCC(N)=O)n(-c4ccccc4)c(=O)c23)C1 | 20 µM [rising, single point] |
| Cc1ccc(S(=O)(=O)c2cc3c(=O)n4cc(C)ccc4nc3n(CC3CCCO3)c2=N)cc1 (stereo not drawn) | 12.6 µM [rising, partial curve] |
| COc1ccc(Cc2nnc(NC(=O)c3c(-c4ccccc4)noc3C)s2)cc1OC | 12.6 µM [rising, partial curve] |
| Cc1nc2ccccc2c2oc(C(=O)N3CCN(C(=O)c4ccco4)CC3)cc12 | 12.6 µM [rising, partial curve] |
| O=S(=O)(c1ccc2c(c1)OCCO2)N1CCC(c2nc3ccccc3s2)CC1 | 0.251 µM [falling, partial curve] |
| COc1ccc2cc3c(N)c(C(=O)N4CCCC4)sc3nc2c1 | 15.8 µM [rising, single point] |
| CC(C)(CO)Cc1cc(C(C)(C)C)c(O)c(C(C)(C)C)c1 | 31.6 µM [falling, single point] |
| O=C(O)CN(CCN(CC(=O)O)CC(=O)O)CCN(CC(=O)O)CC(=O)O | 12.6 µM [rising, partial curve] and 12.6 µM [rising, single point] |
| O=C(CN1CCC(n2nnc3cc(F)ccc32)CC1)Nc1ccccc1N1CCOCC1 | 10 µM [rising, single point] |
| Cc1c(C(=O)OC2CCCCC2)sc2nc[nH]c(=O)c12 | 3.98 µM [rising, partial curve] |
| COc1ccccc1N1CCN(Cc2nc3ccccc3c(=O)n2CC(C)=O)CC1 | 2.51 µM [rising, single point] |

Given with tabs: part of the list above.
Compound	AC50
Cc1ccc(S(=O)(=O)c2cc3c(=O)n4cc(C)ccc4nc3n(CC3CCCO3)c2=N)cc1 (stereo not drawn)	12.6 µM [rising, partial curve]
COc1ccc(Cc2nnc(NC(=O)c3c(-c4ccccc4)noc3C)s2)cc1OC	12.6 µM [rising, partial curve]

(continued)

| Compound | AC50 |
| --- | --- |
| CC(C)(C)NS(=O)(=O)c1cccc(S(=O)(=O)c2cccc(S(=O)(=O)NC(C)(C)C)c2)c1 | 25.1 µM [rising, single point] |
| Cc1ccccc1-n1c(SCc2cc(=O)n3ccccc3n2)nc2[nH]ncc2c1=O | 3.16 µM [rising, full curve] |
| Cc1cc(C)c(C#N)c(SCS(=O)Cc2ccc(Cl)cc2)n1 (stereo not drawn) | 10 µM [rising, partial curve] |
| COC(=O)c1ccc(C2/C(=C(/O)c3ccc(OC)cc3)C(=O)C(=O)N2CC2CCCO2)cc1 (stereo not drawn) | 0.00316 µM [rising, full curve, poor fit] |
| O=C(CCCC1=NS(=O)(=O)c2ccccc2N1)N1CCN(c2ccc(Cl)cc2)CC1 | 25.1 µM [falling, single point] |
| CC(C)(/C=N/O)/[N+]([O-])=C/C=[N+](\[O-])C(C)(C)/C=N/O | 25.1 µM [rising, single point] |
| COc1ccc(-n2c(Cc3cccn3C)nnc2SCC(=O)Nc2ccc(C)c(Cl)c2)cc1 | 6.31 µM [falling, partial curve] |
| CCOc1cc(CN2CCSCC2)ccc1O | 0.00398 µM [falling, full curve, poor fit] |
| CN1C(=O)C(O)(CC(=O)c2ccccn2)c2cc(Br)ccc21 (stereo not drawn) | 0.00316 µM [falling, full curve] |
| COc1ccc2[nH]c(C(=O)c3ccccc3)cc2c1 | 25.1 µM [rising, partial curve] |
| CCn1c(SCC(=O)c2ccccc2)nnc1-c1cnccn1 | 5.01 µM [rising, single point] |
| O=C(NCCN1CCOCC1)NC1(C(F)(F)F)Oc2ccccc2O1 | 6.31 µM [falling, partial curve, poor fit] |
| CSc1nc(-c2ccccc2)ccc1C(N)=O | 5.01 µM [falling, full curve, poor fit] |
| CCOC(=O)c1oc2ccccc2c1NC(=O)c1cccc(OC)c1 | 2.51 µM [rising, full curve] |
| COc1cccc(-c2nc(NCCN3CCOCC3)c3ccccc3n2)c1 | 12.6 µM [rising, single point] |
| CCc1cc(=O)oc2cc(OCC(=O)OC)c(Cl)cc12 | 15.8 µM [rising, single point] |
| COc1cccc(-n2nnc3c(=O)n(Cc4ccccc4F)cnc32)c1 | 15.8 µM [rising, partial curve] |
| Nn1c(SCc2ccccc2)nnc1-c1ccco1 | 7.94 µM [rising, partial curve] |
| O=S(=O)(c1cccc(-c2nc3ccccc3s2)c1)N1CCCC1 | 10 µM [rising, partial curve] |
| O=c1cc(CN2CCN(C/C=C/c3ccccc3)CC2)c2cc(O)ccc2o1 | 0.1 µM [rising, single point] |
| Clc1ccc(-c2nn3cnnc3s2)c(Cl)c1 | 12.6 µM [rising, single point] |
| CCn1c(=O)cc(O)c2ccccc21 | 12.6 µM [rising, partial curve] |
| Cn1c(-c2ccc3nc(N)sc3c2)nc2cc(N)ccc21 | 25.1 µM [falling, single point] |

Ordered by count of non-hydrogen atoms (largest number first): some entries from above

| Compound | AC50 |
| --- | --- |
| COc1cccc(-c2nc(NCCN3CCOCC3)c3ccccc3n2)c1 | 12.6 µM [rising, single point] |
| CCn1c(SCC(=O)c2ccccc2)nnc1-c1cnccn1 | 5.01 µM [rising, single point] |
| CN1C(=O)C(O)(CC(=O)c2ccccn2)c2cc(Br)ccc21 (stereo not drawn) | 0.00316 µM [falling, full curve] |

More records follow.

| Compound | AC50 |
| --- | --- |
| CCS(=O)(=O)N1Cc2ccccc2CC1C(=O)N1CCN(c2cccc(C)c2C)CC1 (stereo not drawn) | 1 µM [falling, full curve] |
| N#C/C(=C/c1ccc(N2CCCCCC2)o1)c1ccc(F)cc1 | 25.1 µM [falling, single point] |
| Nc1nc(Nc2ccccc2Br)nc(C(F)(F)F)n1 | 7.94 µM [rising, partial curve] |
| CC(NC(=O)c1ccco1)C(c1cccs1)N1CCN(c2ccccc2)CC1 (stereo not drawn) | 31.6 µM [falling, single point] |
| COc1ccc(CNc2cc(-c3ccccc3OC)ncn2)c(OC)c1 | 12.6 µM [rising, partial curve, poor fit] |
| Cc1cc(C)c2c(n1)nn1c(-n3ccnc3)cc(C)nc21 | 12.6 µM [rising, partial curve] |
| Cc1ccc(S(=O)(=O)N2CCCC2C(=O)NCCc2nc3ccccc3[nH]2)cc1 (stereo not drawn) | 10 µM [rising, partial curve] |
| NS(=O)(=O)c1ccc(N=Nc2c(O)c(C(=O)O)cc3ccccc23)cc1 | 1.58 µM [falling, partial curve] |
| Cc1ccc(-c2nc(C)sc2CC(=O)NCc2ccco2)cc1 | 7.94 µM [falling, partial curve] |
| Cc1ccc(C(=O)COC(=O)CNC(=O)c2ccco2)cc1 | 25.1 µM [falling, single point] |
| Cc1cc(C)c(-c2cc(NC(=O)CSc3nncn3C)n(-c3ccccc3)n2)cc1C | 5.01 µM [falling, single point] |
| COc1ccc(-c2c3c(=O)n(C)c(=O)n(C)c3cn2-c2ccccc2)cc1 | 0.251 µM [falling, full curve] |
| COC(=O)c1cccc(CSc2nnc(-c3ccco3)n2-c2ccccc2)c1 | 12.6 µM [rising, partial curve] |
| Cc1ccc(-c2nc3cnccn3c2Nc2ccccc2)o1 | 10 µM [rising, single point] |
| O=C(O)c1cc2c([nH]c1=O)CCCC2 | 0.631 µM [falling, single point] |
| Cc1cc(C)n(-c2ncnc3c2oc2ccccc23)n1 | 12.6 µM [rising, single point] |
| O=C(CC1CCCCC1)c1c(O)c2ccccc2oc1=O | 25.1 µM [falling, single point] |
| O=C(CSC1=NS(=O)(=O)c2ccccc21)Nc1ccccc1 | 12.6 µM [falling, partial curve] |
| CC(=O)N1CCC2(CCCN(c3cccc(-c4ccccc4)c3)C2)CC1 | 25.1 µM [falling, single point] |
| COC(=O)CCP(=O)(O)Cc1ccccc1CP(=O)(O)CCC(=O)OC | 6.31 µM [falling, partial curve] |
| O=C(CNC(=O)c1ccccc1)NC1(C(=O)NC2CCCC2)CCCCC1 | 0.0251 µM [falling, full curve, poor fit] |
| COc1cc(S(=O)(=O)N2CCOCC2)ccc1NC(=O)c1cc2c(s1)CCC2 | 10 µM [rising, single point] |
